Values quoted from earlier work as cited in patent publication US8906865B2, “Treatment of inflammation and/or endotoxic shock” (ISIS Innovation Limited, priority 2007, dated 2014).
At least one compound was matched to its structure with a doubt left.

Tested on: C57B16/J mice, zymosan-induced peritonitis
Conditions: cited from earlier work

In the case of C[C@@H]1C[C@H]2[C@@H]3CCC4=CC(=O)C=C[C@]4(C)[C@@]3(F)[C@@H](O)C[C@]2(C)[C@@]1(O)C(=O)CO [dexamethasone], the “Downregulation of monocyte and neutrophil influx” value (30 μg/mouse (1.2 mg/kg)) is listed as 50% and the “Dose required for a similar degree of efficacy against sterile peritonitis in mice” value (mouse, in vivo) is listed as 1.2 mg/kg.
